Measurements published in publication PMC5450317.

B1: Msd5 (protein, UniProt Q9W0G6 1-253)
chain: METNVDFSSISSKLYRKYAQHVRNLKDVCVSKTVMKPGAFFDSLQQMMEEEAAATTPPRDLSSVADYAELFKTLEEYPANLQKMPKKRELQRTNSTLLRGADESVAMGINTSNVSLSLTRLEEQRSAVDVYNDFKGFQRKLAKIYDEAAALDTTESIYKQKLTQLHGFAQQLEKLMPTGGESPPDAFTSEQQEKLLTIAANMEQLNYLRSNSLQLPNPNEILATGSLAARLEMFVEVLTYTLLQVSSYNMAMI
B2: Wac (protein, UniProt Q9W0S8 1-163)
chain: MQNLKIQEEVNSLMRLGQHFDDQLKLASVELGDFSDDDLALLDKCAQYYSLLHIHDINLNYLRDFYCAKKRECIENRQTTVQQRVELQRILSSIEEATRDVVMLERFNAAAEERLIPDIVVMQRNAQQLATKQALLDRQKTLKIPKDFSIESVIEKVDSLEQR
B3: Dgt2 (protein, UniProt Q9VKD6 1-231)
chain: MDDPSATLLPEHSEDLRLARDAELKKVLKLKLVLDELRRLDVGPNPSDEIKRALKLVSIGSYARLGEMEGAGQEQVLGLPSGSSFPPLNYTDRKTVRTKLSAQLRTTLQPIAELCDRIREEFPDAFGQEADLSCDQKEILRLEEEHRSGLEKLVALLTRKCTLLKETAELKLGPQLANELKLQQAQAQLVQTKAELLRGFFVHEAASRTEHSVKAHKEVEAHLDELLAAKK
B4: Dgt3 (protein, UniProt Q9W2P0 1-565)
chain: MGDLLSNSEFFKKLGVDSSNQWILYDEQMEMFFKFLSGNITDANILTERQVLEREEMQRRGEWLSASDRELKLLQIEAESPGLLNYKQQDVDALTMSIEAIEDASRDYATLLEDMMTTKHSITKHLGEVECVTAELQLREKDLIAECQSKAKQLEELQQENCRLSAEAKKAFTAPQLPPLFMHQLPLEQYFHKCDSFMQYFTLYVKENFKIQDYDEFQSAEEDLGREKAKLEDLERGIQFYALSYIRTKAKVKATQCLIDQLDLGKIHCLSLTDMAREMHDLQLLNDYQLSNTHDTLLNDLTIHIQQHTQRRIELVLYENTKLKLERAVRRHESDKKLTKIISDALSNAELLWIAIQLDCDKKRNCLDTSEELRDQAQATWQRIQTMRSINASYQGICAQFVQEIANLLSAHLGQNIKATEAKACLFEYEKFGRLLSYSFQSMLNRKSCAAVQDQLAELKRLEQTLRPFVYDSPLEQPMFENVRYLSAIYNVTQQQTRLDESGRSLRKDFLENVVGRIERDKLYRYSVVLWIWFLTEPQRMMHAIDEVKKAAAAVIRPGGGLHRK
B5: Dgt4 (protein, UniProt Q9W4M8 1-188)
chain: METPPTPTTTTPPSLTTEGTMDDIQYLLHLEAMRRFQEDSRNVKRQVEEQVRIWLDAKCEYQRDFGRLARLLKCGALQAAVDAHRVSDVNQVDQAAKDIASLRSKLGSDLRPAILDSNDVKQCLEHLNTTHKPRLNLCRQQREFAQNQEALRSLRTAVDGLENGMEMGMIQAMDRLVEDLLPPRETNN
B6: Dgt5 (protein, UniProt Q7K4B4 1-685)
chain: MAYQEKITEFKNWATNLGCPPTALPTDDALRRIFKSGSSLLLNQLQSRIQPVDYVREVRENLLIAQVARYKDKMVPLASRSFQPPELQRYQKIQELKKHKEKANQQLTEARKEYQKLSAGIKTKNIQTISAENRKQLLESKCNILDLKLESLNKNYDQELKNKIQILGTTPVKLSARNASEAQATRAVEQALKQLETFYGMCDDGNAVNNLAEAKQRLWDQMRSTFADIPNSLLLNVVMKIKEEQLQHIMKLNESRGECTNDKPPLNNYEVKLLKTKADMLGLAAKYFAAQKELELKEERFCQDYSVFVDKLQSKVYRFNGISLGDEENADELISDYLVQYNMRNFNRSQNEFLREQIEQLRLELDAGAKQLENHDLKLGSVKQVYGDINSSINRIQQDMVQLSQIKEKILFSRNMMKNLLDDMQAATQKQNAKSQLMSTKLKVSNMSMLGAESFCLANDSVFSSTKVEFDGNCSAINSTMRRSFDNKTLVPGGAASTTLMAASGATLPSHLLEFNTFLEIPLEKFSCTPRACSFLLSANPLIVEAQELASTVQLAPGYLLTPFGALQEVRKRILWASAIAAHTSELKLNLQPLIVDPHDLRLKASRQHEEIDQLLDNLMAIGVKTQLQLEKAERIYQFLLENPLRRYVPPSKRYNNGSFADYESEFNLYYRMTTNGSSMRAPPN
B7: Dgt6 (protein, UniProt Q9VAP2 1-654)
chain: MDRTIIAPWKAEEKEQSEKLHRKLQGLALVHPLPDELRKLIAWDMFLKPNQVAFVHVMHYLFRLLDPAEFKRRFFWPITDKKSEANFRSSTVEYLKHLNEKHQLHWANIKSYLVVMPGGMRFINFLLEFVGFVIQELIKQREKSLGLEAGTPNVSAKVMARQNAVMKEYASSYVVNLEENTALLRDKTQKIRRLMADLSADMGVPEEQLADDGFLDEFEATAALGVERVITQPTERKFDLEASLCGLKEAIDLFQVKQAENNQSKEAVEKALRGMRVLFDCDAVTEGDFYDPLGASKMDALLNGFNRISGTIAEQLDANDHYNESNAFVTTDLQALRVELSQSEVQLNNLLKKLNEPSKKDKGSANASGSARVQTLQPATPRFESVISSKFVSTPPIRIDMGGGGGRNAPVRLALQDDFNGKQFDALSNSLLAPAPPRSARKLKALDQSTGIDLNGTLNRSKINDPMQMLRTIHKNTSKVKAAPQANLSSLGSKWKQMQASFGFDEAPVPGAAVISPQTSPTDPSDPFTPLSGSECTRIERIPRTSENNTSLIAKSAAVIKVLEVSRNVLNLSTSPSGRLDALVPHTESHQQDVAPRLQLNDRTINDSLQLDPDFNIENDKNAFNVSHKFDFDQIGGEDDLQNISDSVLKDIIF

Each binder was assayed against T1, Msd1-GFP (Drosophila) (UniProt Q9W0G7) (assay: affinity purification with mass spectrometry; GFP-TRAP-A beads incubated overnight at 4°C with clarified extract of 0-3 h Drosophila embryos expressing Msd1-GFP; C buffer (50 mM HEPES pH 7.4, 50 mM KCl, 1 mM MgCl2, 1 mM EGTA, 0.1% IGEPAL CA-630); on-bead trypsin digestion, LC-MS/MS).
T1 sequence: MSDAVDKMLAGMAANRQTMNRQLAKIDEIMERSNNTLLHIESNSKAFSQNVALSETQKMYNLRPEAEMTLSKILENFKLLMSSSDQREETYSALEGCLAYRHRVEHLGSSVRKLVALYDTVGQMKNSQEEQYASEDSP
For B1, the binding was “binds”. In the case of B2, the binding is reported as “binds”. In the case of B3, the binding is reported as “binds”. With B4 the binding was “binds”. For B5, the binding was “binds”. For B6, the binding was “binds”. For B7, the binding was “binds”.

These are yes or no findings as the source states them, for the method shown. Binding seen in cells or lysates may run through a third protein. These calls come from enrichment with a bait or labelling near it, and not all partners need be listed. Sequences can lack the tags named with a protein.
